Source: publication PMC10085685

T1: AtMHF2, yeast two-hybrid fusion (Arabidopsis thaliana) (UniProt Q8L7N3)
T1 sequence: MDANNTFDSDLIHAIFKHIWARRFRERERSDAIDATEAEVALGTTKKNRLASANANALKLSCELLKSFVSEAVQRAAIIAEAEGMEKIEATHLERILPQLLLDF

T2: AtFANCE, yeast two-hybrid fusion (Arabidopsis thaliana) (UniProt Q9SU89)
T2 sequence: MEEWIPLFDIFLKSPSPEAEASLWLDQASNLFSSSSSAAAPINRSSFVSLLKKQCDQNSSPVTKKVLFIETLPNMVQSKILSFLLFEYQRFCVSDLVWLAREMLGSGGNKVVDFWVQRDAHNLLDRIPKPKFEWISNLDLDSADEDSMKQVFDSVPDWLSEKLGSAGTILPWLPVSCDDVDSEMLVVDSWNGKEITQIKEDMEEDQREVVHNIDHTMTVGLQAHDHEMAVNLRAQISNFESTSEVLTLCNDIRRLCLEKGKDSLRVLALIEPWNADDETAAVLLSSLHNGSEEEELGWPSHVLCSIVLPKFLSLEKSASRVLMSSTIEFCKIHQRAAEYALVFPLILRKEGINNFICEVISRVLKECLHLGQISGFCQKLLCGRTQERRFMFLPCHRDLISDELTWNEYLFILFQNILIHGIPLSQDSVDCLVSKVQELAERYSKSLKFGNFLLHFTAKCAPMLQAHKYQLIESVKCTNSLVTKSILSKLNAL

B1: AtFANCE, yeast two-hybrid fusion (protein, UniProt Q9SU89 1-493)
chain: T2 sequence

Tests used:
Experiment in all cases: two-hybrid; Gal4-based system (Clontech), haploid strains AH109 and Y187 mated to a diploid strain; pGADT7-GW / PACT2 AD and pGBKT7(-GW) fusions
[1] = biological target: T1, AtMHF2, yeast two-hybrid fusion (Arabidopsis thaliana)
[2] = biological target: T2, AtFANCE, yeast two-hybrid fusion (Arabidopsis thaliana)
[3] = biological target: AtFANCF, yeast two-hybrid fusion (Arabidopsis thaliana) (UniProt F4K7F0)

| Molecule | binding [1] | binding [2] | binding [3] |
| --- | --- | --- | --- |
| AtFANCC (At3g60310), yeast two-hybrid fusion (Arabidopsis thaliana) | binds | binds | – |
| AtFANCF, yeast two-hybrid fusion (from UniProt F4K7F0) | binds | – | – |
| B1 | – | – | binds |

Results are given in words; binding and its absence hold for the method and conditions named. A result given as binding can be weak or reduced; the word gives no strength. Sequences can lack the tags named with a protein.
